Assay results from patent publication US20250296954 (published 2025).

Experiment: Fmoc solid-phase peptide synthesis in flow; pentafluorophenyl ester (Fmoc-AA-OPfp)
Conditions: coupling step

Fmoc-L-Ala-L-Ala-L-Ala-L-Ala-OtBu
step yield: 92%
